{
  "source": "PubChem BioAssay AID192",
  "about": "(DTP/NCI, 2004)",
  "tested_on": "BDF1 mice, B16 melanoma ip, median survival T/C",
  "assay": "NCI In Vivo Anticancer Drug Screen. Data for tumor model B16 Melanoma (intraperitoneal) in B6D2F1 (BDF1) mice",
  "settings": "T/C endpoint: median survival time, schedule: Q01DX009 (ip), higher T/C = longer survival",
  "procedure,_shortened": "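Each result divides a survival or tumor-size measurement in the compound-treated group by the same measurement in the vehicle group.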",
  "key": {"[1]": {"settings": "dose: 50.0 mg/kg/injection, vehicle: Klucel (hydroxypropylcellulose) (HPC)"}, "[2]": {"settings": "dose: 100.0 mg/kg/injection, vehicle: Klucel (hydroxypropylcellulose) (HPC)"}, "[3]": {"settings": "dose: 200.0 mg/kg/injection, vehicle: Klucel (hydroxypropylcellulose) (HPC)"}, "[4]": {"settings": "dose: 50.0 mg/kg/injection, vehicle: saline"}, "[5]": {"settings": "dose: 100.0 mg/kg/injection, vehicle: saline"}, "[6]": {"settings": "dose: 200.0 mg/kg/injection, vehicle: saline"}, "[7]": {"settings": "dose: 400.0 mg/kg/injection, vehicle: saline"}},
  "note": "The list does not hold the whole screen: its compounds were picked by chemical class. Other doses and runs of a compound may be missing. T/C gives the treated animals as a percentage of the vehicle group. Some doses have a count of surviving animals in place of a T/C: the source holds a T/C of zero for them, seemingly a mark for toxic or unscored doses. Some doses without a T/C left all or most animals alive at the check, yet need not have been tolerated: the source hardly ever lists a survival T/C far under the control, and the zero likely stands for such cases as well. Counts of survivors are from the toxicity check (mostly the fifth day) where no day follows; animals may have died later. Schedules are NCI's codes, read here as Q, the interval in days (D) or hours (H), X, the number of doses. For survival time, this PubChem deposit counts one and a half times the control or more as active, and values a quarter to a half above the control carry no call in these data; other NCI protocols may use other cut-offs. Marks such as (2×) count equal records among those shown. Some entries hold several experiments; the values are given in rising order. Some T/C values carry the count of animals alive at the toxicity check (mostly the fifth day); without a count or a note in brackets, all were alive then.",
  "data": [
    {"smiles": "COC(=O)c1ccc(N2CCOP2(=O)Cl)cc1O", "note": "(stereo unspecified)", "values": [
      {"measurement": "T/C", "setting": "dose: 100.0 mg/kg/injection, vehicle: saline with Tween-80", "value": "97 % of control [9 of 10 alive]"},
      {"measurement": "survivor count", "setting": "dose: 200.0 mg/kg/injection, vehicle: saline with Tween-80", "value": "8 of 10"},
      {"measurement": "survivor count", "setting": "dose: 400.0 mg/kg/injection, vehicle: saline with Tween-80", "value": "0 of 10"}
    ]},
    {"smiles": "CCCNC(=O)c1ccc(N(CCCl)CCCl)cc1", "values": [
      {"measurement": "T/C", "setting": "dose: 6.25 mg/kg/injection, vehicle: Klucel (hydroxypropylcellulose) (HPC)", "value": "87 % of control [6 of 8 alive]"},
      {"measurement": "T/C", "setting": "dose: 12.5 mg/kg/injection, vehicle: Klucel (hydroxypropylcellulose) (HPC)", "value": "101 % of control (2×)"},
      {"measurement": "T/C", "setting": "dose: 25.0 mg/kg/injection, vehicle: Klucel (hydroxypropylcellulose) (HPC)", "value": "101 and 104 % of control"},
      {"measurement": "T/C", "setting": "[1]", "value": "96 and 101 % of control"},
      {"measurement": "T/C", "setting": "[2]", "value": "101 [7 of 8 alive] and 109 % of control"},
      {"measurement": "survivor count", "setting": "[3]", "value": "0 of 8"}
    ]},
    {"smiles": "NC1CCCCC1.O=P(O)(NCCCO)N(CCCl)CCCl", "values": [
      {"measurement": "T/C", "setting": "dose: 25.0 mg/kg/injection, vehicle: saline", "value": "128 % of control"},
      {"measurement": "T/C", "setting": "[4]", "value": "159 % of control"},
      {"measurement": "T/C", "setting": "[5]", "value": "219 % of control"},
      {"measurement": "survivor count", "setting": "[6]", "value": "6 of 6"},
      {"measurement": "survivor count", "setting": "[7]", "value": "0 of 6"}
    ]},
    {"smiles": "O=[N+]([O-])c1cccc(Oc2ccc([N+](=O)[O-])cc2[N+](=O)[O-])c1", "values": [
      {"measurement": "T/C", "setting": "[1]", "value": "116 % of control"},
      {"measurement": "T/C", "setting": "[2]", "value": "110 % of control"},
      {"measurement": "T/C", "setting": "[3]", "value": "104 % of control [9 of 10 alive]"}
    ]},
    {"smiles": "Cc1ccc(Sc2ccc([N+](=O)[O-])cc2[N+](=O)[O-])c([N+](=O)[O-])c1", "values": [
      {"measurement": "T/C", "setting": "[4]", "value": "100 % of control"},
      {"measurement": "T/C", "setting": "[5]", "value": "100 % of control"},
      {"measurement": "T/C", "setting": "[6]", "value": "102 % of control"},
      {"measurement": "T/C", "setting": "[7]", "value": "110 % of control"}
    ]}
  ]
}
